Experimental data as given in PMC11497106, “GJB2 Promotes HCC Progression by Activating Glycolysis Through Cytoplasmic Translocation and Generating a Suppressive Tumor Microenvironment Based on Single Cell RNA Sequencing” (Advanced Science, 2024).
Results are given in words; binding and its absence hold for the method and conditions named. Binding seen in cells or lysates may run through a third protein. Some binding calls cover weakened binding; strength is not graded here.

By UniProt entry, the sequences of proteins in these tests, tags left out.
UniProt P25963: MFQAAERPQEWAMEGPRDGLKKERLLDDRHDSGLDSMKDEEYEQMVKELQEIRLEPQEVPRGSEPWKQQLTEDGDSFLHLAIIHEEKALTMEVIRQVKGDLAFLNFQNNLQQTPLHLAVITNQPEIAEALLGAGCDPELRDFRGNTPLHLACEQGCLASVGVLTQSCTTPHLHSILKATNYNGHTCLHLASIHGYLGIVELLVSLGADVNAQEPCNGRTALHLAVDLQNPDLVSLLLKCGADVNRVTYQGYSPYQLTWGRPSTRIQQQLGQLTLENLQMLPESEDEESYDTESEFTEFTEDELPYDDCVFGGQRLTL

Target: IκBα (human (endogenous in HCC cell lines)) (UniProt P25963)
Experiment: co-IP; lysates of HCC cell lines; 5 µg monoclonal antibody against the target protein in 500 µL lysate overnight at 4 °C, then Protein A and Protein G; western blot. IκBα-ASB2 tested 'after transfection'. GJB2-ASB2 also tested after treating cells with DMSO or Salvianolic acid B (binding weakened by Sal B)

binding: binds
B1: ankyrin repeats and SOCS box containing 2 (ASB2) (protein, UniProt Q96Q27 1-635)
chain: MATQISTRGSQCTIGQEEYSLYSSLSEDELVQMAIEQSLADKTRGPTTAEATASACTNRQPAHFYPWTRSTAPPESSPARAPMGLFQGVMQKYSSSLFKTSQLAPADPLIKAIKDGDEEALKTMIKEGKNLAEPNKEGWLPLHEAAYYGQVGCLKVLQRAYPGTIDQRTLQEETAVYLATCRGHLDCLLSLLQAGAEPDISNKSRETPLYKACERKNAEAVKILVQHNADTNHRCNRGWTALHESVSRNDLEVMQILVSGGAKVESKNAYGITPLFVAAQSGQLEALRFLAKYGADINTQASDNASALYEACKNEHEEVVEFLLSQGADANKTNKDGLLPLHIASKKGNYRIVQMLLPVTSRTRIRRSGVSPLHLAAERNHDEVLEALLSARFDVNTPLAPERARLYEDRRSSALYFAVVNNNVYATELLLQHGADPNRDVISPLLVAIRHGCLRTMQLLLDHGANIDAYIATHPTAFPATIMFAMKCLSLLKFLMDLGCDGEPCFSCLYGNGPHPPAPQPSSRFNDAPAADKEPSVVQFCEFVSAPEVSRWAGPIIDVLLDYVGNVQLCSRLKEHIDSFEDWAVIKEKAEPPRPLAHLCRLRVRKAIGKYRIKLLDTLPLPGRLIRYLKYENTQ
